Primary screen of a compound library

The chains behind the UniProt entries cited, without tags or fusion partners.
UniProt E9BF75, entry or part of it: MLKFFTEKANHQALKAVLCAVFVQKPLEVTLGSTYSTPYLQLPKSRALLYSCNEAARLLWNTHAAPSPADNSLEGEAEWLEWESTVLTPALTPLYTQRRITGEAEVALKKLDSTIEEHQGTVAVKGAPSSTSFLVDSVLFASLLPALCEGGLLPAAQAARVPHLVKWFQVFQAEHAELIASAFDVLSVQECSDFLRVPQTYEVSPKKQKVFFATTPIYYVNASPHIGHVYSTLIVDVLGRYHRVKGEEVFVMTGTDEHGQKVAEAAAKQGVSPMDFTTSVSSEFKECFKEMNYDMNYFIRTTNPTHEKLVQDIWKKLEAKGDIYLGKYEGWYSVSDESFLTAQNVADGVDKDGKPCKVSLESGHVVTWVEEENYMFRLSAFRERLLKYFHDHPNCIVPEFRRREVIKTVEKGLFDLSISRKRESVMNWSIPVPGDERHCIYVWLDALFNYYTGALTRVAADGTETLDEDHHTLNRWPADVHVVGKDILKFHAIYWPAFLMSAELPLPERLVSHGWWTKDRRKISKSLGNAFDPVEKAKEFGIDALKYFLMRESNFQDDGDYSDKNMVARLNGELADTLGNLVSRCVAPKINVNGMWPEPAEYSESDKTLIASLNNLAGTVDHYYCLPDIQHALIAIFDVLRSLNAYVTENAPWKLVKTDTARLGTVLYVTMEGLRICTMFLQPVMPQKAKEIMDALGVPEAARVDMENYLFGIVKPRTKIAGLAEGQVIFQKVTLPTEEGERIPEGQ

From ChEMBL document CHEMBL3988442, “University of Dundee, Small-Polar-MMV Screening Library” (2021).

LdMetRS: 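Primary screen of methionyl-tRNA synthetase; the read-out is not stated. Target: Methionyl-tRNA synthetase (putative), Leishmania donovani (UniProt E9BF75). The test concentration is not given. The values are filed as inhibition. Size under these conditions: about 68,000 compounds, about 24 of them at 50% or above in at least one test.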
Mtb heat-shock: 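Assay on Mycobacterium tuberculosis, filed only as a heat shock assay from Cornell; the read-out is not stated. The concentration is filed as 10 mM, unlikely as a test dose, so the dose is not known. The record gives no direction; compounds that gave an IC50 in retests scored well above the rest, so higher reads as stronger inhibition. Size under these conditions: about 69,000 compounds, about 930 of them at 50% or above in at least one test.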

All values are in %.
The controls that fix the scale are not given in the record; negative values are as filed.
Compounds were drawn at random from those tested, without regard to their results.
A dash means the value is not listed here; it may have been measured.

compound,LdMetRS,Mtb heat-shock
Cc1cccc(CN2CCc3c(COCC(=O)N(C)C)nn(C)c3C2)n1.O=C(O)C(F)(F)F.O=C(O)C(F)(F)F,-,-10.6
COc1c(CNC(c2ccc(F)cc2)C(C)(C)C)c(C)nn1C (stereo unspecified),10.2,-2.306
[H][C@@]12CS(=O)(=O)C[C@]1([H])N(Cc1cnn(-c3ccccc3OC)c1)CCN2C,-,6.279
CS(=O)(=O)c1cccc(C(N)c2ccc(F)cc2)c1 (stereo unspecified),10.84,2.727
CCS(=O)(=O)N1CCOC2(CCCN(Cc3ccccn3)C2)C1.O=C(O)C(F)(F)F (stereo unspecified),-,2.925
COCCn1cnnc1C1CCCN(C(C)C)C1 (stereo unspecified),-7.074,-16.07
C[C@@H]1CN(Cc2ccncc2)C[C@@]1(O)C1CC1,11.78,1.51
CN(Cc1ccco1)C(=O)CN1CCCC(Cn2cncn2)C1 (stereo unspecified),7.874,13.59
O=c1n(CCSCc2ccccc2Br)nc2ccccn12,3.093,38.08
O=C(CCc1ccc(Br)cc1)NCc1nnc[nH]1,14.78,-1.107
O=C(NCCN1CCCCCC1=O)NCc1ccc(Cl)s1,13.48,-28.42
CC(C)(C)NC(=O)COc1ccc(CNCCOc2ccccn2)cc1,13.81,12.09
CC(=O)N[C@@H]1CN(S(=O)(=O)c2ccc(Cl)cc2)C[C@H]1O,18.99,3.189
Cc1cnn(CC2CCCCN2C(=O)CN(C)C2CC2)c1 (stereo unspecified),6.25,-1.93
Cc1ccc(-c2ccc(C3CNCCO3)nc2)cc1 (stereo unspecified),6.824,-
COc1ccc(-c2nnc(C(C)N3CCOC(C)(C)C3)o2)cc1 (stereo unspecified),-1.087,0.6997
CN(CC(N)=O)CC(=O)N(C1=CCCCC1)C1CC1,16.43,-2.861
[H][C@@]12COC[C@H](C(=O)N3CCCCO3)[C@]1([H])CN(C1CCOCC1)C2,-,-24.76
Cn1cnnc1SCC(=O)NC1CC(=O)N(CCc2cccc(Cl)c2)C1 (stereo unspecified),12.11,15.55
CCN(Cc1nc2c(cnn2C)c(=O)[nH]1)c1cccc(Cl)c1,13.89,23.2
Cc1cc(C(F)(F)F)nc(C2(C)CCCN2CC(N)=O)n1 (stereo unspecified),0.6231,-1.596
O=C(O)C(F)(F)F.O=C(O)C(F)(F)F.[H][C@@]12CCCO[C@]1([H])[C@H](NC(=O)c1cccnc1)CN(c1ncccn1)C2,-,-12.98
O=C(c1ccc2[nH]c(=O)[nH]c2c1)N1CCC(Nc2cccnn2)CC1,0.8547,0.5641
CC(C)N1[C@H](CN2CCCC2)C[C@@H]2CN(C(=O)c3ccoc3)CC[C@@H]21,8.696,-
Cc1nn(C)c(Cl)c1C1CCCN1CC(=O)NCc1ccccn1 (stereo unspecified),15.97,-4.011
COc1ccccc1N(C)S(=O)(=O)c1cc(C(=O)O)cs1,8.059,-15.04
COc1ccc(CN2CCC3(CCCNC3)C2)cc1Cn1cccn1 (stereo unspecified),4.013,-9.334
CC1CCC(NS(=O)(=O)CC(=O)NCC2CCC2)CC1 (stereo unspecified),16.52,19.74
CCC(NC(=O)C1CC1)c1ccccc1OCC(=O)N1CCCC1 (stereo unspecified),14.21,38.66
O=C(CCCC(=O)NCc1cccc(Br)c1)NCCN1CCCC1,21.55,2.438
N#Cc1nccnc1N1CCC(CSc2ccccc2)C1 (stereo unspecified),7.829,0.05
[H][C@@]12OCCN(CCOC)[C@@]1([H])CC[C@H]2OCc1cccc(C)n1,-,-54.23
O=C([C@@H]1CC[C@@H]2[C@@H](CCN2Cc2ccoc2)O1)N1CCCC1,14.5,-
CN1CCC2(CC1)OC(C(=O)NCc1cccnc1)Cn1ccnc12 (stereo unspecified),13.93,-4.433
CSCc1noc(CNC(=O)C2CCN(C(=O)C3CC3)CC2)n1,10.15,-6.831
COc1ccc(NC2CCCN(Cc3cnc(N(C)C)s3)C2)cc1 (stereo unspecified),15.01,-27.27
O=C(O)CCc1cccc(C2CCCN2Cc2ccc(F)c(F)c2)n1 (stereo unspecified),20.21,-4.642
CC(C)N1CCC2(C=C(C(=O)NC3CC3)c3ccccc32)CC1.O=C(O)C(F)(F)F,-,-2.25
Cc1nn(C)c(Cl)c1C1CCCN1Cc1noc(C2CC2)n1 (stereo unspecified),27.43,0.5944
CC(C)CN1Cc2nc(N3CCCC(C)C3)ncc2C1=O (stereo unspecified),13.88,0.03104
Cc1ccc(N2CCCC(NCCS(C)(=O)=O)C2)nn1 (stereo unspecified),12.45,-8.032
Cn1ncc2c(NCCOc3ccc(F)cc3)nc(C3CCCC3)nc21,20.2,26.95
O=C(CN1CCCCC1Cn1cncn1)NCCC1=CCCCC1 (stereo unspecified),1.408,-1.853
OC1CCN(c2ccnc(NCCc3ccccc3Cl)n2)CC1,9.763,-16.36
CNC(=O)COC1COC2(CCN(c3ccc(C)nn3)CC2)C1.O=C(O)C(F)(F)F (stereo unspecified),-,2.553
Cc1nnc(SCCNC(=O)CC2CCc3ccccc32)s1 (stereo unspecified),15.86,-20.33
Cc1noc2ncc(C(=O)NCC3CCCO3)cc12 (stereo unspecified),4.737,18.56
O=C([C@H]1COC[C@H]2CN(C3CCCCC3)C[C@H]21)N1CCOCC1,16.25,-
O=C(CN1CC(c2ccccc2)CC1=O)NCc1cc2n(n1)CCNC2 (stereo unspecified),12.14,-4.742
CC(C)N(C)Cc1ncn2c1CN(S(=O)(=O)c1cccs1)CCC2.O=C(O)C(F)(F)F,-,-16.26
COCc1nnc(C(=O)N2CC(N3CCCCC3)C2)o1,16.91,7.654
c1cc(NC2CC3(CCN(Cc4cscn4)C3)C2)ncn1 (stereo unspecified),11.01,-5.363
CCCC(O)CN1CC(C)(C)CN(C(=O)c2ccccc2)CC1=O (stereo unspecified),2.432,-0.8281
O=C(CN(CC1CCC1)CC(F)(F)F)N1CCCC1,13.43,5.349
CC1(C)CNC(=O)c2nc(-c3ccccc3)[nH]c2C1,9.924,7.853
C[C@@H]1CN(C(=O)C2CCOCC2)C[C@]12CCN(c1cccnc1)C2=O,-3.759,-
COc1ccc(OC)c(S(=O)(=O)NC(=O)C(C)OC)c1 (stereo unspecified),17.33,-0.8218